No constants are given. Whether binding was seen depends on the method and setting. A result given as binding can be weak or reduced; the word gives no strength.
Key:
[1] = target: T1, Hydrogenase-1 small (β) subunit (E. coli) (UniProt P69739); experiment: SEC; freshly isolated Hyd-1 incubated 2 h with ca. 1 % digitonin, Superdex 200 HR 10/30, running buffer with 0.007 % digitonin, pH 7.0, 50 mM sodium phosphate, 0.10 M NaCl, 4 °C, 0.15 mL/min; full calibration; fractions analysed by SDS-PAGE; (αβ)2 dimer to (αβ) monomers; both purified
T1 sequence: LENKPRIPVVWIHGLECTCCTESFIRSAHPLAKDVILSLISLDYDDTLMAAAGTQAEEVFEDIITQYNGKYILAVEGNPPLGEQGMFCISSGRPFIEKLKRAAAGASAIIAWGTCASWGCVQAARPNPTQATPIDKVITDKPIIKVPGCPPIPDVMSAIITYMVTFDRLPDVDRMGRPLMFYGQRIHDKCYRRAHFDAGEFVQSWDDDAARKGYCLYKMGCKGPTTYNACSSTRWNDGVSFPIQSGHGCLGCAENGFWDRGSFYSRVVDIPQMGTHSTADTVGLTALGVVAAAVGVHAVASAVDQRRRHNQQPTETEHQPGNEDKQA

[2] = target: T1, Hydrogenase-1 small (β) subunit (E. coli); experiment: SEC; Superdex 200 HR 10/30, running buffer with 0.02 % Triton X-100, pH 7.0, 50 mM sodium phosphate, 0.10 M NaCl, 4 °C, 0.15 mL/min; column calibrated with protein standards; dimer peak run again after 5 days at 4 °C; fractions analysed by SDS-PAGE; (αβ)2 dimer to (αβ) monomers; both purified

## Hydrogenase-1 large (α) subunit (from UniProt P0ACD8)
[1]
  binding: binds
[2]
  binding: binds
